From PubChem BioAssay AID1347423 (Functional Genomics Laboratory (NCATS/FGL), 2020)
Among all 52,000 sequences or so, about 210 (0.4%) were called active.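 The calls were made as follows: active = gene whose silencing raises cell survival under the drug, median off-target-corrected z-score across its silencing RNAs 2 or more; inactive = the rest.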 This is one part of the list.

Assay: Resistance to Poly (ADP-Ribose) Polymerase inhibitor: Gene Identification via Genome-wide siRNA Screen
Conditions: mouse BRCA2 R2336H ES cells, olaparib, CellTiter-Glo viability; active compounds read high
How it was run: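 Mouse BRCA2 R2336H ES cells were reverse-transfected with siRNA (20 nM final), treated at 48 h with 500 nM olaparib, and read by CellTiter-Glo after 72 h. Scores: MAD-based z per siRNA, median per gene, seed off-target correction.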
With GGAGGAGAUGAAUGCUCUGTT against Krt1-17 the z-score was inactive: 0.854. In the case of GGAAUUUAAGGAAGCUGCUTT against Homer1, the z-score is reported as inactive: -1.2. For GGAUGAAAUUAACUCUGAATT against Adprt1, the z-score was active: 2.49. For “GCUAAAGAAAAGUGGAGACTT against 2610029G23Rik”, the z-score was inactive: -0.314. In the case of CCUUGUUCCCACUUUUGUATT against Cirbp, the z-score is reported as inactive: -0.223. In the case of GGACCGCGUUCAAGAAGAATT against Cyp2c37, the z-score is reported as inactive: -0.469. For GGUAGAAUUGUGAUCUCAGTT against Bcdo2, the z-score was inactive: -0.24. In the case of GGCAGGUUUUUGAACUGGUTT against Olfr725, the z-score is reported as inactive: -0.89. In the case of GGGAACCUCUGAAAAGAGGTT against LOC433365, the z-score is reported as inactive: 0.538. With CCUGACUCCUACUCAAUUATT against Hcrtr1 the z-score was inactive: 0.231. In the case of GGUGUCAAUCAUGUUGUCATT against Susd2, the z-score is reported as inactive: -1.15. With GGCGCAUCCAAACUUUGAUTT against Kcnq3 the z-score was inactive: 0.167. In the case of GGAUGUGAAGGAUGGGAAGTT against Rps18, the z-score is reported as inactive: -3.24. In the case of “GCCAGGAGUCCUUUAGGAATT against 8430420C20Rik”, the z-score is reported as inactive: 2.68. In the case of GCGAGUAUUCAGAUCAUACTT against Wsb2, the z-score is reported as inactive: -1.3. With “GCGUGGUUACGCUAUGAUCTT against 2410008J05Rik” the z-score was inactive: 0.325. In the case of GGCUUGAAGCCCUAGUACUTT against Tmprss8, the z-score is reported as inactive: -0.174. With GGAAAUUUUUGGUGAAAGGTT against Dnajb7 the z-score was inactive: -0.272. With “GGAACAAAGUUAAAUCCAATT against 4930405J24Rik” the z-score was inactive: -1.84. With GGUCAUCCUGGACAAUCUCTT against Syt6 the z-score was inactive: 0.707. For GGAAAGAGAGAAGAAAUAGTT against Lmo2, the z-score was inactive: 0.527. For GCAGAUUGAGCCUGUCAAUTT against Ddx39, the z-score was inactive: -0.13. In the case of GCUUAGAGCUUCAUAUAGCTT against Tlr12, the z-score is reported as inactive: 0.0538. In the case of GGCUCGUGAUCGAAAUCUUTT against Il1rl1l, the z-score is reported as inactive: 0.5. For “CCGAUCACUUUAUCUUCACTT against A930011F22Rik”, the z-score was inactive: 1.28. With “GGCUUCAAAAACGACUAAATT against 4921537D05Rik” the z-score was inactive: -1.03. In the case of CCUCGUUCAUACGACAGAATT against BC062951, the z-score is reported as inactive: -0.447. In the case of GGAAAAGAUACGGAAGAUUTT against Acpp, the z-score is reported as active: 0.216. In the case of GGAUUUUGGCCUUUCCAUUTT against Ly86, the z-score is reported as inactive: 1.78. With UGAUUUCAACAAGUGGCAUTT against Olfr730 the z-score was inactive: 2.37. In the case of GGAACAAGAGAAGAUCCUCTT against Cd209b, the z-score is reported as inactive: 1.63. In the case of “CCUAUGUCAUUUGUAAUGATT against A630018P17Rik”, the z-score is reported as inactive: 0.312. For “CCAAGGUAAAUUACUAUGATT against 4930519N13Rik”, the z-score was inactive: 0.142. With GCAUUUAUCACAUGGACAUTT against Tle4 the z-score was inactive: -1.14. With GGACAACCAGAAAUGUAUGTT against Grid1 the z-score was inactive: -0.385. For CCAAUGAAGAUCCUUCCACTT against Gabra3, the z-score was inactive: -0.582. In the case of GGACACACAAGAGAAGAUCTT against Thop1, the z-score is reported as inactive: -0.612. With GGAUGUCCUUGACUUUAAATT against Atp6v0a4 the z-score was inactive: -0.208. For CGGCAUCGUCAGCUAUUAATT against Pip5k1a, the z-score was inactive: -1.61. In the case of GGGCUACACUUCUGUCUACTT against Nanos3, the z-score is reported as inactive: -1.59. With GGCGAGUUCAGGAGUUUACTT against Fmnl1 the z-score was inactive: -0.146. With GGUCCUGAAUUUCAUCCUUTT against Galgt2 the z-score was inactive: 1.04. With GCGAGCUAAACAUUCUGAATT against Mgea6 the z-score was inactive: 0.68. With CCUGAGACUAGACAGAUGGTT against Hmga1 the z-score was inactive: -1.16. In the case of GGAUAUAAAGGGAGCUUUUTT against Olfr397, the z-score is reported as inactive: -1.25. In the case of GGAAGUAUGUGGAUAAAUUTT against Usp5, the z-score is reported as inactive: -2.84. In the case of GGAUUAUUCCCUUUCUUCCTT against Sh3md1, the z-score is reported as inactive: 0.138. With GGAGCUGGCAGACAUCACUTT against Ube2e1 the z-score was inactive: -0.385. In the case of “GGAUCACUGACUUUGAAUUTT against 2700078K21Rik”, the z-score is reported as inactive: 1.28. With GGGAACAAGGAACUCAAAGTT against Igsf4a the z-score was inactive: 0.405. In the case of “GGAUGAGAAUAUUGAAAGATT against 4932415M13”, the z-score is reported as inactive: -0.114. With GGUUUUUUUUCCUUUCCCUTT against Frs3 the z-score was inactive: -0.159. With GGUUCUGGCUCCUUGGACUTT against Oscar the z-score was inactive: -3.21. For GCACGAGAGUCUGAAGGAUTT against Mns1, the z-score was inactive: -1.29. With GCCACUCGGAGAUUUUUCATT against Slc15a4 the z-score was inactive: -0.468. For GCAAUCCUCUUCACCCUCUTT against Olfr1495, the z-score was inactive: -2.21. In the case of GCCUUUAAUUUUGACAACUTT against V1rh20, the z-score is reported as inactive: 1.16. In the case of GCACUAAUCAACUUAAGUCTT against Zfpn1a5, the z-score is reported as inactive: 0.715. With GGAAAAAGUGAAAACCUUGTT against Jun the z-score was inactive: 0.897. With GGAGGAAAGAAGAAAUAUCTT against Parvg the z-score was inactive: -0.373. With CGUUGGUAUUUCCUUUGUATT against Slfn4 the z-score was inactive: -0.847. For GGAAUGUUACAUUUCAGUUTT against Adam1a, the z-score was inactive: 0.191. For GGUGUUCCAAGAGUCGUCATT against BC030867, the z-score was inactive: -0.341. In the case of GCAGAUCAUUAAGAUCCGATT against Ruvbl1, the z-score is reported as inactive: 0.412. In the case of GUCCUCGUAGGAACAGCAUTT against Olfr1265, the z-score is reported as inactive: 1.15. With GGGUUACCAGUUUGAGGAGTT against Pex5 the z-score was inactive: 0.817. In the case of “GGUCAAGUACAAAAGAGAUTT against 1200007O21Rik”, the z-score is reported as inactive: 0.255.
